Measurements from patent US20050282843A1, “Therapeutic applications of 2-substituted 4-heteroarylpyrimidines” (priority 2002, published 2005).
Some results were stated once for a whole list of compounds, not compound by compound.

Test system: cellular glycogen synthase activity in HEK293 cells
Experiment: Glycogen synthase (GS) assay in HEK293 cells
Assay type: cell-based, human
Conditions: bound stated
Method: Cells on 10 cm dishes (Human Embryonic Kidney (HEK) 293 cells, L6 rat myocytes, or 3T3 mouse adipocytes) were treated with different concentrations of GSK3-inhibitors or DMSO vehicle for 90 min. Incubation medium was removed and cells were washed with ice-cold phosphate-buffered saline (PBS) prior to lysis on ice in 50 mM HEPES, pH 7.5, 10 mM EDTA, 100 mM NaF, 5 mM DTT, protease inhibitor cocktail (Sigma). After a freeze/thaw cycle the samples are sonicated for 10 sec and centrifuged at 15,000 g for 10 min at 4° C. Lysate supernatants were snap-frozen on liquid nitrogen and stored at −80° C. Lysates were assayed for glycogen synthase activity in buffer (50 mM Tris-HCl, pH 7.8, 20 mM EDTA, 25 mM NaF, 5 mM DTT, 1% glycogen, 0.3 mM UDP-glucose and 0.06 μCi of [^14C]-UDP-glucose in the presence of 0.1 or 10 mM glucose-6-phosphate. The reaction was carried out for 30 min at 30° C. 70 μL of the reaction mixture (total volume 90 μL) were transferred to a GFC 96-well filter plate (bottom sealed with foil), containing 140 μL 96% ethanol. The GFC plate was incubated for 1 h on ice and than washed with 66% ethanol. To each well 100 μL scintillant liquid was added and the radioactivity of the samples was measured using a scintillation counter (Topcount, HP). Data are expressed as -fold increase in glycogen synthase activity ratios over those of control samples.

| Structure (SMILES) | increase in cellular GS activity over control samples |
| --- | --- |
| Cc1[nH]c([N+](=O)[O-])c(C)c1-c1ccnc(Nc2ccc(N(C)C)c([N+](=O)[O-])c2)n1 [Compound 21, N^4-[4-(2,4-Dimethyl-5-nitro-1H-pyrrole-3-yl)-pyrimidin-2-yl]-N^1,N^1-dimethyl-2-nitro-benzene-1,4-diamine] | ≥ 3 -fold |
| Cc1c(-c2ccnc(Nc3cccc([N+](=O)[O-])c3)n2)sc(=O)n1C [Compound 32, 3,4-Dimethyl-5-[2-(3-nitro-phenylamino)-pyrimidin-4-yl]-3H-thiazol-2-one] | ≥ 3 -fold |
| Cc1ccc(Nc2nccc(-c3sc(=O)n(C)c3C)n2)cc1[N+](=O)[O-] [Compound 36, 3,4-Dimethyl-5-[2-(4-methyl-3-nitro-phenylamino)-pyrimidin-4-yl]-3H-thiazol-2-one] | ≥ 3 -fold |
| Cc1cc(Nc2nccc(-c3sc(=O)n(C)c3C)n2)ccc1F [Compound 37, 5-[2-(4-Fluoro-3-methyl-phenylamino)-pyrimidin-4-yl]-3,4-dimethyl-3H-thiazol-2-one] | ≥ 3 -fold |
| Cc1c(-c2ccnc(Nc3ccc(N(C)C)c([N+](=O)[O-])c3)n2)c(C)n(C)c1C#N [Compound 39, 4-[2-(4-Dimethylamino-3-nitro-phenylamino)-pyrimidin-4-yl]-1,3,5-trimethyl-1H-pyrrole-2-carbonitrile] | ≥ 3 -fold |

Test system: GSK-3β
Experiment: GSK-3β kinase assay (phosphorylation of CREB phosphopeptide)
Assay type: biochemical, rabbit
Conditions: not given
Method: GSK-3 was obtained from New England Biolabs (UK) Ltd., Hitchin, Herts. The recombinant enzyme was isolated from a strain of E. coli that carries a clone expressing GSK-3β derived from a rabbit skeletal muscle cDNA library [Wang, Q. M.; Fiol, C. […] The samples were transferred to 96-well p81 filter plates (Whatman Polyfiltronics, Kent, UK), and the plates were washed 4 times with 200 μL/well of 75 mM aq orthophosphoric acid.

| Structure (SMILES) | selectivity, IC50 (CDK2/E)/(GSK3β) |
| --- | --- |
| Cc1c(-c2ccnc(Nc3ccc(N(C)C)cc3)n2)c(C)n(C)c1C#N [Compound 38, 4-[2-(4-Dimethylamino-phenylamino)-pyrimidin-4-yl]-1,3,5-trimethyl-1H-pyrrole-2-carbonitrile] | ≥ 5 |
| Cc1c(-c2ccnc(Nc3ccc(N(C)C)c([N+](=O)[O-])c3)n2)c(C)n(C)c1C#N [Compound 39, 4-[2-(4-Dimethylamino-3-nitro-phenylamino)-pyrimidin-4-yl]-1,3,5-trimethyl-1H-pyrrole-2-carbonitrile] | ≥ 5 |
